In test [1] the target is bipartite bc1-cbb3-type supercomplex (His-tagged bipartite SC, CIII2CIV) (Rhodobacter capsulatus). The test is described as follows: condition: 5-10-fold molar excess of cyt S-cy over 125 ug SC; SEC; 5-10-fold molar excess of purified cyt c (cyt cy or cyt S-cy) mixed with 125 ug purified bipartite SC in 150 uL TBS (50 mM Tris-HCl pH 7.4, 150 mM NaCl, 0.01% DDM); Superose 6 Increase; fractions by SDS-PAGE and silver staining; both purified.

By UniProt entry, the sequences of proteins in these tests, tags left out. Where a name states a change or a piece, a line headed by the entry shows the natural chain unless it says otherwise.
UniProt D5ARP5: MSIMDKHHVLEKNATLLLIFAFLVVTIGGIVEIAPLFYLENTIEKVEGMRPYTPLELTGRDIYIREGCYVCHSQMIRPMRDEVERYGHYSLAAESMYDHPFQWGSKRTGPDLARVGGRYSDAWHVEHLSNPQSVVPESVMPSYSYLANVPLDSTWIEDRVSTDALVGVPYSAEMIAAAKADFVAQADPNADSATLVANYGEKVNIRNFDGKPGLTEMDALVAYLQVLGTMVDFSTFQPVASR

For test [2], the target named is CcoO, subunit of cbb3-type CIV (Rhodobacter capsulatus) (UniProt D5ARP5). The test is described as follows: cross-linking; XL-MS: 300 ug purified cbb3-type CIV with 2-fold molar excess of cyt c2, 20 mM DMTMM, 1 h, room temperature, low salt (20 mM Na-phosphate pH 7.4, 1 mM NaCl, 0.01% DDM); both purified.
The target of test [3] is cbb3-type cytochrome c oxidase (Complex IV, CIV) (Rhodobacter capsulatus). The test is described as follows: SEC; 2-fold molar excess of purified cyt c2 with 300 ug purified CIV, low salt (20 mM Tris-HCl pH 7.4, 1 mM NaCl, 0.01% DDM); Superose 6 Increase; fractions by SDS-PAGE and silver staining; both purified.
For test [4], the target named is bipartite bc1-cbb3-type supercomplex (His-tagged bipartite SC, CIII2CIV) (Rhodobacter capsulatus). Put plainly: SEC; 5-10-fold molar excess of purified cyt c (cyt cy or cyt S-cy) mixed with 125 ug purified bipartite SC in 150 uL TBS (50 mM Tris-HCl pH 7.4, 150 mM NaCl, 0.01% DDM); Superose 6 Increase; fractions by SDS-PAGE and silver staining; both purified.
For test [5] the target is unchanged. The test is described as follows: cryo-EM structure; purified bipartite SC mixed with 5-fold molar excess of purified cyt cy; map SC-2A, 5.2 A; models fitted as rigid bodies; both purified.

The text below walks through data of publication PMC7876108, “Cryo-EM structures of engineered active bc1-cbb3 type CIII2CIV super-complexes and electronic communication between the complexes” (Nature Communications, 2021).

Results are given in words; binding and its absence hold for the method and conditions named. For some assays here: Binding can be weak; no strength is given.

B1: cyt S-cy, soluble variant of cyt cy lacking the TMH (domain or fragment, UniProt Q05389 99-199)
chain: GDAKAGEEKFNKTCKACHKIDGKNAVGPHLNGVIGRATATVEGFKYSTAMKNHVGNWTPERLDIYLVSPKAEVPGTKMSFVGLPEAADRANVIAYLNTLPR
With B1, the binding entry in test [1] is “no binding”.

B2: cytochrome c2 (natural protein, Rhodobacter capsulatus, UniProt P00094 22-137, looked up)
chain: GDAAKGEKEFNKCKTCHSIIAPDGTEIVKGAKTGPNLYGVVGRTAGTYPEFKYKDSIVALGASGFAWTEEDIATYVKDPGAFLKEKLDDKKAKTGMAFKLAKGGEDVAAYLASVVK
notes: soluble cytochrome c2, Rhodobacter capsulatus; also called cyt c2; source: purified R. capsulatus cyt c2
For B2, the binding result in test [2] and in test [3] was “binds” in each case.

B3: cytochrome cy, full length (membrane-anchored) (protein, UniProt Q05389 1-199)
chain: MLVKTHITKIGVTLFAVALFYGFIYMLSNSLFATRPATAVAVGADGKALLPSVDEAAMPAKAPAAAAPAAETAEAAAPAEPAAPPPPAYVEVDPATITGDAKAGEEKFNKTCKACHKIDGKNAVGPHLNGVIGRATATVEGFKYSTAMKNHVGNWTPERLDIYLVSPKAEVPGTKMSFVGLPEAADRANVIAYLNTLPR
Consider B3, for which the binding entry in test [4] and in test [5] was “binds” throughout.
